This test in a line: qHTS Assay for Lipid Storage Modulators in Drosophila S3 Cells.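 On cell number change: cells counted by Cell Tracker Red CMTPX staining in the red channel.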 As to conditions: BODIPY lipid droplet fluorescence, 18-24 h; for cell number change: measured here: cell count max response, cells fed with added oleic acid. An outline of the steps: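 Drosophila S3 cells got compounds at several concentrations plus oleic acid (400 uM solution). Laser-scanning cytometry with 488 nm excitation read lipid droplets at 500-530 nm and cells at 575-640 nm. Percent activity was relative to 20 uM Triacsin C.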
(In qHTS, concentration-response curves come from the screen itself.)

Setting [1] is: measured here: lipid fluorescence (Fed channel) AC50, cells fed with added oleic acid.
Setting [2] is: measured here: cell number channel AC50, cells fed with added oleic acid.

The list shows a part of the results. Shown are side measurements of this screen, not its main read-out; they come without a call. The list favours compounds with an active or inconclusive main result. The note in brackets gives the kind of curve behind each potency; many fits are weak.

In general, AC50 refers to the concentration at which the activity in the assay is half-maximal. Regarding `C=CCNC(=O)c1cc(-c2ccc(Br)cc2)on1`, the cell number change was 26.6%. Further, the AC50 under setting [1] was 8.2 µM [rising, partial curve].

With `O=C1Nc2ccc([N+](=O)[O-])cc2OC1CCN1CCN(Cc2ccc3c(c2)OCO3)CC1` (stereo unspecified), the cell number change is -48.4%.

With `CC(C)CCN(C(=O)c1csnn1)C(C(=O)NC1CCCC1)c1ccccc1` (stereo unspecified), the cell number change is -10.5%. Further, the AC50 under setting [1] is 3.55 µM [falling, partial curve].

As to `COc1ccc(C(=O)N/N=C/c2sc(N3CCOCC3)nc2-c2ccccc2)cc1OC`, the cell number change was 48.2%. Further, the concentration at half-maximal activity (AC50) under setting [2] was 2.91 µM [rising, full curve].

For the compound `CC1CCCCC1NS(=O)(=O)c1ccc2c(c1)CC(=O)N2C` (stereo unspecified), the cell number change stood at 14.9%.

As for `CC(C)C[C@H](N)C(=O)N1CCC(C(=O)N[C@H](C(=O)NCc2ccc(F)cc2)C(C)C)CC1`, the cell number change is 23%. Besides, the AC50 under setting [1] was 0.82 µM [falling, single point].

As for `CC(C)N(Cc1ccccc1)C(=S)NCCN1CCOCC1`, the cell number change is -14.7%. Further, the half-maximal activity concentration (AC50) under setting [1] is 0.1 µM [rising, full curve, poor fit].

As to `CCC(C)[C@H](NC(=O)OC(C)(C)C)C(=O)N/N=C/C1=Cc2ccccc2OC1` (stereo partly specified), the cell number change was -35.7%. Further, the AC50 under setting [1] was 14.6 µM [falling, partial curve].

Turning to `O=C(CCN=C1NS(=O)(=O)c2ccccc21)N1CCc2ccccc2C1`, the cell number change was found to be 41.7%. The AC50 under setting [2] is 5.17 µM [rising, partial curve].

Take `CCSc1nnc(C)c2ccccc12`: the cell number change worked out at 11.2%. Besides, the concentration at half-maximal activity (AC50) under setting [2] is 0.164 µM [falling, full curve, poor fit].

With `Cc1ccc(NC(=O)CN(C)C(C)C(=O)Nc2ccc(S(=O)(=O)N3CCCC3)cc2)cc1` (stereo unspecified), the half-maximal activity concentration (AC50) was 3.66 µM [rising, partial curve] under setting [2] and 0.164 µM [rising, full curve, poor fit] under setting [1].

As to `CCC(=O)Nc1cc(C(C)C)c(O)cc1C`, the cell number change was -9.14%. Further, under setting [1], the AC50 is 29.1 µM [falling, single point].

Regarding `CCOC(=O)N1CCN(C(=O)Nc2ccccc2Cl)CC1`, the cell number change was -31.7%. For the same compound, the AC50 under setting [2] was 3.66 µM [falling, full curve]. For the same compound, under setting [1], the AC50 was 3.66 µM [falling, full curve].

As to `O=C(N/N=C/c1c(F)cccc1Cl)C1CC1`, the cell number change is 18.8%. Moreover, the AC50 under setting [1] is 13 µM [rising, single point].

For the compound `O=C(Cc1ccc(NC2=NC3CS(=O)(=O)CC3S2)cc1)NCCc1ccccc1` (stereo unspecified), the cell number change is -0.576%. For the same compound, the AC50 under setting [1] is 2.59 µM [rising, full curve].

`COc1cc(OC)nc(NC(=O)NS(=O)(=O)c2ccc(F)cc2)n1`: the cell number change was 2.98%. Also, the half-maximal activity concentration (AC50) under setting [2] is 6.51 µM [rising, single point].

With `O=C(Nc1ccc2c(c1)OCCO2)c1ccc2nccnc2c1`, the cell number change was -9.09%.

For the compound `Cc1ccc(SCC(=O)NC(=O)NC2CCCC2)c(C)c1`, the cell number change stood at 85%. In addition, the half-maximal activity concentration (AC50) under setting [2] is 20.6 µM [rising, partial curve].

As for `COc1cccc(C(=O)N/N=c2\sc3ccccc3n2C)c1`, the cell number change was -9.79%. Moreover, the AC50 under setting [2] is 6.51 µM [rising, single point]. Moreover, under setting [1], the AC50 was 8.2 µM [rising, partial curve].

As for `CCCCC1=CC2=CC(=O)C(C)(OC(=O)CC)C(=O)C2=CN1Cc1ccccc1` (stereo unspecified), the cell number change was -32.4%. Besides, the AC50 under setting [2] is 10.3 µM [falling, partial curve]. The AC50 under setting [1] is 7.31 µM [falling, partial curve].

Take `COCCNC(=O)c1onc(CSc2cc(C)cc(C)c2)c1C(=O)NCCOC`: under setting [1], the AC50 is 6.51 µM [rising, single point].

With `O=C(CSc1ccccn1)N1CCN(C(=O)CSc2ccccn2)CC1`, the cell number change was 90.5%. Moreover, under setting [2], the AC50 is 29.1 µM [rising, single point].

With `O=C(CCCn1c(SCC(=O)c2ccc(F)cc2)nc2ccccc2c1=O)NCc1ccccc1`, the concentration at half-maximal activity (AC50) under setting [2] is 0.731 µM [rising, full curve] and the AC50 under setting [1] is 1.46 µM [rising, full curve].

As to `Cc1csc(CCc2nc(C)cs2)n1`, the cell number change was -0.452%. Further, under setting [1], the AC50 is 11.6 µM [rising, single point].

With `CN1CCN(NC(=O)c2ccc(Cl)c([N+](=O)[O-])c2)CC1`, the cell number change is -15%.

As to `COc1cccc(Oc2ccc(C(F)(F)F)cc2NC(=O)CCc2nc3ccccc3c(=O)[nH]2)c1`, the cell number change is -1.05%. The AC50 under setting [1] was 23.1 µM [falling, single point].

On to `COc1ccc(OC)c(CNc2ccc3c(c2)CCC3)c1`, for which the AC50 under setting [1] is 0.13 µM [rising, full curve, poor fit].

For the compound `C=CCNC(=S)Nc1sc2c(c1C(=O)OCC)CC(C(C)C)OC2` (stereo unspecified), the cell number change was 63.3%. The AC50 under setting [2] is 29.1 µM [rising, single point]. Under setting [1], the AC50 was 4.61 µM [falling, single point].

For `NC(=O)CC(NC(=O)c1cccc(Br)c1)c1ccc(N2CCCCCC2)c([N+](=O)[O-])c1` (stereo unspecified), the cell number change was 9.88%. Besides, the AC50 under setting [1] was 6.51 µM [rising, single point].

Regarding `CCCCOc1ccc(CSCCNC(=S)Nc2ccccc2)cc1`, the cell number change is -11%. Moreover, under setting [1], the concentration at half-maximal activity (AC50) is 13 µM [falling, partial curve].

Consider `COC(=O)C(NC(=O)CN1C(=O)c2ccccc2C1=O)c1ccc(O)c(OC)c1` (stereo unspecified), for which the cell number change was -0.787%. The AC50 under setting [1] was 29.1 µM [rising, single point].

`CC1(C)CC(NC(=O)Nc2ccc([N+](=O)[O-])cc2)CC(C)(C)N1`: the cell number change was -55.4%. The AC50 under setting [2] was 0.366 µM [falling, full curve, poor fit]. For the same compound, the AC50 under setting [1] is 0.82 µM [falling, full curve, poor fit].

In the case of `Cc1nn(-c2ccccc2)c(N2CCCC2)c1/C=N/O`, the cell number change stood at 27.7%. In addition, the AC50 under setting [1] is 6.51 µM [rising, single point].

Turning to `COc1ccccc1Nc1n[nH]c(=S)s1`, the cell number change stood at 31.8%.

Consider `O=C(O)O`, for which the cell number change was 0.924%. Also, the AC50 under setting [1] was 29.1 µM [falling, single point].

Turning to `Brc1ccccc1-c1nc(-c2ccccc2)no1`, the cell number change came to 204%. For the same compound, under setting [2], the AC50 was 20.6 µM [rising, partial curve]. Further, the AC50 under setting [1] was 20.6 µM [rising, partial curve].

For the compound `CCn1cc(C2=NCCO2)c2ccccc21`, the AC50 under setting [2] is 0.103 µM [falling, full curve, poor fit].

As to `O=[N+]([O-])c1cc(Cc2ccccc2)cc(C=Nc2ccc(N3CCOCC3)cc2)c1O`, the cell number change is -29.6%. Further, the AC50 under setting [1] was 0.517 µM [falling, single point].

Consider `COc1ccc(N2CCN(c3ccc(NC(=O)/C=C\C(=O)O)cc3)CC2)cc1`, for which the cell number change is -30.2%. Further, the AC50 under setting [2] was 11.6 µM [falling, single point].

These data come from PubChem BioAssay AID2685 (National Center for Advancing Translational Sciences (NCATS), 2010).
